# This is one part of the list.
# What was measured:
# Assay in all cases: glycan array binding signal (z-score within array); higher = stronger binding
# Settings in all cases: glycan notation: IUPAC condensed, linker removed
# [1] = molecular target: GalNAc(b1-4)GlcNAc(b1-2)Man
# How it was run: (§1)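 The Consortium for Functional Glycomics database supplied 3228 glycan arrays, of which those lacking an available protein sequence were dropped. The binding signal, a within-array Z-score, was averaged across arrays of the same protein sequence and across linkers. Negative scores can be read as non-binding.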
# [2] = molecular target: GalNAc(b1-4)GlcNAc(b1-2)Man(a1-3)[GalNAc(b1-4)GlcNAc(b1-2)Man(a1-6)]Man(b1-4)GlcNAc(b1-4)GlcNAc
# How it was run: as §1
# [3] = molecular target: GalNAc(b1-4)GlcNAc(b1-3)GalNAc(b1-4)GlcNAc
# How it was run: as §1
# [4] = molecular target: GalNAc(b1-4)GlcNAc6S
# How it was run: as §1
# [5] = molecular target: GalNAc(b1-6)GalNAc
# How it was run: as §1
# [6] = molecular target: GalNAc3S(b1-4)GlcNAc
# How it was run: as §1
# [7] = molecular target: GalNAc3S(b1-4)GlcNAc3S
# How it was run: as §1
# [8] = molecular target: GalNAc3S(b1-4)[Fuc(a1-3)]GlcNAc
# How it was run: as §1
# [9] = molecular target: GalNAc4S6S(b1-4)GlcNAc
# How it was run: as §1
# [10] = molecular target: GalNAc6S(b1-4)GlcNAc
# How it was run: as §1
# [11] = molecular target: Glc(a1-4)Glc
# How it was run: as §1
# [12] = molecular target: Glc(a1-4)Glc(a1-4)Glc(a1-4)Glc
# How it was run: as §1
# [13] = molecular target: Glc(a1-6)Glc(a1-6)Glc
# How it was run: as §1
# [14] = molecular target: Glc(a1-6)Glc(a1-6)Glc(a1-6)Glc
# How it was run: as §1
# [15] = molecular target: Glc(b1-4)Glc
# How it was run: as §1
# [16] = molecular target: Glc(b1-6)Glc
# How it was run: as §1
# [17] = molecular target: GlcA(b1-3)Gal
# How it was run: as §1
# [18] = molecular target: GlcA(b1-3)GlcNAc
# How it was run: as §1
# [19] = molecular target: GlcA(b1-6)Gal
# How it was run: as §1
# [20] = molecular target: GlcA3S(b1-3)Gal(b1-4)GlcNAc(b1-2)Man
# How it was run: as §1
# [21] = molecular target: GlcA3S(b1-3)Gal(b1-4)GlcNAc(b1-3)Gal(b1-4)Glc
# How it was run: as §1
# [22] = molecular target: GlcNAc(a1-3)Gal(b1-4)GlcNAc
# How it was run: as §1
# [23] = molecular target: GlcNAc(a1-4)Gal(b1-3)GlcNAc
# How it was run: as §1
# [24] = molecular target: GlcNAc(a1-4)Gal(b1-4)GalNAc
# How it was run: as §1
# [25] = molecular target: GlcNAc(a1-4)Gal(b1-4)GlcNAc
# How it was run: as §1
# [26] = molecular target: GlcNAc(a1-4)Gal(b1-4)GlcNAc(b1-3)Gal(b1-4)Glc
# How it was run: as §1
# [27] = molecular target: GlcNAc(a1-4)Gal(b1-4)GlcNAc(b1-3)Gal(b1-4)GlcNAc
# How it was run: as §1
# [28] = molecular target: GlcNAc(a1-4)Gal(b1-4)GlcNAc(b1-3)Gal(b1-4)GlcNAc(b1-3)Gal(b1-4)GlcNAc
# How it was run: as §1
# [29] = molecular target: GlcNAc(a1-4)Gal(b1-4)GlcNAc(b1-3)Gal(b1-4)[Fuc(a1-3)]GlcNAc(b1-3)Gal(b1-4)[Fuc(a1-3)]GlcNAc
# How it was run: as §1
# [30] = molecular target: GlcNAc(a1-6)Gal(b1-4)GlcNAc
# How it was run: as §1
# [31] = molecular target: GlcNAc(b1-2)Gal(b1-3)GalNAc
# How it was run: as §1
# [32] = molecular target: GlcNAc(b1-2)Man(a1-3)[GlcNAc(b1-2)Man(a1-6)]Man(b1-4)GlcNAc(b1-4)GlcNAc
# How it was run: as §1
# [33] = molecular target: GlcNAc(b1-2)Man(a1-3)[GlcNAc(b1-2)Man(a1-6)]Man(b1-4)GlcNAc(b1-4)[Fuc(a1-6)]GlcNAc
# How it was run: as §1
# [34] = molecular target: GlcNAc(b1-2)Man(a1-3)[GlcNAc(b1-4)][GlcNAc(b1-2)Man(a1-6)]Man(b1-4)GlcNAc(b1-4)GlcNAc
# How it was run: as §1
# [35] = molecular target: GlcNAc(b1-2)Man(a1-3)[GlcNAc(b1-4)][GlcNAc(b1-2)Man(a1-6)]Man(b1-4)GlcNAc(b1-4)[Fuc(a1-6)]GlcNAc
# How it was run: as §1
# [36] = molecular target: GlcNAc(b1-2)[GlcNAc(b1-4)]Man(a1-3)[GlcNAc(b1-2)Man(a1-6)]Man(b1-4)GlcNAc(b1-4)GlcNAc
# How it was run: as §1
# [37] = molecular target: GlcNAc(b1-2)[GlcNAc(b1-4)]Man(a1-3)[GlcNAc(b1-4)][GlcNAc(b1-2)Man(a1-6)]Man(b1-4)GlcNAc(b1-4)GlcNAc
# How it was run: as §1
# [38] = molecular target: GlcNAc(b1-2)[GlcNAc(b1-4)]Man(a1-3)[GlcNAc(b1-4)][GlcNAc(b1-2)[GlcNAc(b1-6)]Man(a1-6)]Man(b1-4)GlcNAc(b1-4)GlcNAc
# How it was run: as §1
# [39] = molecular target: GlcNAc(b1-2)[GlcNAc(b1-4)]Man(a1-3)[GlcNAc(b1-4)][GlcNAc(b1-2)[GlcNAc(b1-6)]Man(a1-6)]Man(b1-4)GlcNAc(b1-4)[Fuc(a1-6)]GlcNAc
# How it was run: as §1
# [40] = molecular target: GlcNAc(b1-2)[GlcNAc(b1-6)]Man(a1-6)[GlcNAc(b1-2)Man(a1-3)]Man(b1-4)GlcNAc(b1-4)GlcNAc
# How it was run: as §1
# [41] = molecular target: GlcNAc(b1-2)[GlcNAc(b1-6)]Man(a1-6)[GlcNAc(b1-2)Man(a1-3)]Man(b1-4)GlcNAc(b1-4)[Fuc(a1-6)]GlcNAc
# How it was run: as §1
# [42] = molecular target: GlcNAc(b1-2)[GlcNAc(b1-6)]Man(a1-6)[GlcNAc(b1-4)][GlcNAc(b1-2)Man(a1-3)]Man(b1-4)GlcNAc(b1-4)GlcNAc
# How it was run: as §1
# [43] = molecular target: GlcNAc(b1-3)Fuc
# How it was run: as §1
# [44] = molecular target: GlcNAc(b1-3)Gal
# How it was run: as §1
# [45] = molecular target: GlcNAc(b1-3)Gal(b1-3)GalNAc
# How it was run: as §1
binder,measurement,setting,value
Lb MiSSP8 (Laccaria bicolor) (protein) MYFHTLFACATLMLITTAHASPTVINSLDSRKADLNGDVEARHAADWRRDSDWRRDSDWRRDSDWRRDSD,glycan array binding signal (z-score),[1],-0.744
same,glycan array binding signal (z-score),[2],1.2
same,glycan array binding signal (z-score),[3],2.18
same,glycan array binding signal (z-score),[4],0.837
same,glycan array binding signal (z-score),[5],-0.764
same,glycan array binding signal (z-score),[6],-0.267
same,glycan array binding signal (z-score),[7],-0.592
same,glycan array binding signal (z-score),[8],-0.185
same,glycan array binding signal (z-score),[9],-0.806
same,glycan array binding signal (z-score),[10],-0.902
same,glycan array binding signal (z-score),[11],1.21
same,glycan array binding signal (z-score),[12],1.44
same,glycan array binding signal (z-score),[13],-0.109
same,glycan array binding signal (z-score),[14],-0.592
same,glycan array binding signal (z-score),[15],-0.392
same,glycan array binding signal (z-score),[16],0.526
same,glycan array binding signal (z-score),[17],-0.854
same,glycan array binding signal (z-score),[18],3.78
same,glycan array binding signal (z-score),[19],-0.751
same,glycan array binding signal (z-score),[20],-0.688
same,glycan array binding signal (z-score),[21],-0.861
same,glycan array binding signal (z-score),[22],-0.205
same,glycan array binding signal (z-score),[23],-0.613
same,glycan array binding signal (z-score),[24],-0.474
same,glycan array binding signal (z-score),[25],-0.102
same,glycan array binding signal (z-score),[26],-0.488
same,glycan array binding signal (z-score),[27],-0.688
same,glycan array binding signal (z-score),[28],-0.827
same,glycan array binding signal (z-score),[29],0.375
same,glycan array binding signal (z-score),[30],-0.116
same,glycan array binding signal (z-score),[31],1.43
same,glycan array binding signal (z-score),[32],-0.557
same,glycan array binding signal (z-score),[33],-0.088
same,glycan array binding signal (z-score),[34],-0.219
same,glycan array binding signal (z-score),[35],-0.723
same,glycan array binding signal (z-score),[36],-0.682
same,glycan array binding signal (z-score),[37],-0.64
same,glycan array binding signal (z-score),[38],-0.744
same,glycan array binding signal (z-score),[39],-0.468
same,glycan array binding signal (z-score),[40],-0.405
same,glycan array binding signal (z-score),[41],0.161
same,glycan array binding signal (z-score),[42],-0.626
same,glycan array binding signal (z-score),[43],0.395
same,glycan array binding signal (z-score),[44],-0.868
same,glycan array binding signal (z-score),[45],-0.229

# Some of the entries so far, with tabs:
binder	measurement	setting	value
Lb MiSSP8 (Laccaria bicolor) (protein) MYFHTLFACATLMLITTAHASPTVINSLDSRKADLNGDVEARHAADWRRDSDWRRDSDWRRDSDWRRDSD	glycan array binding signal (z-score)	[12]	1.44
same	glycan array binding signal (z-score)	[13]	-0.109
same	glycan array binding signal (z-score)	[14]	-0.592
same	glycan array binding signal (z-score)	[15]	-0.392
same	glycan array binding signal (z-score)	[16]	0.526
same	glycan array binding signal (z-score)	[17]	-0.854
same	glycan array binding signal (z-score)	[18]	3.78
same	glycan array binding signal (z-score)	[19]	-0.751
same	glycan array binding signal (z-score)	[20]	-0.688
same	glycan array binding signal (z-score)	[21]	-0.861

# From the supplement of paper PMC8728848
